Results are given in words; binding and its absence hold for the method and conditions named. Binding seen in cells or lysates may run through a third protein. These calls come from enrichment with a bait or labelling near it, and not all partners need be listed.
Molecular target: wild-type TRIM28 (endogenous, K562 cells) (human (endogenous in K562)) (UniProt Q13263)
Test: affinity purification with mass spectrometry; IP of endogenous TRIM28 or TRIM28-K304Q from K562 cells with anti-TRIM28-N-conjugated protein A beads; washed, eluted with the antibody-generating peptide; MS (LTQ-Orbitrap Velos, Mascot)

Chains of the proteins cited; added tags and fusions are not shown.
UniProt P17029: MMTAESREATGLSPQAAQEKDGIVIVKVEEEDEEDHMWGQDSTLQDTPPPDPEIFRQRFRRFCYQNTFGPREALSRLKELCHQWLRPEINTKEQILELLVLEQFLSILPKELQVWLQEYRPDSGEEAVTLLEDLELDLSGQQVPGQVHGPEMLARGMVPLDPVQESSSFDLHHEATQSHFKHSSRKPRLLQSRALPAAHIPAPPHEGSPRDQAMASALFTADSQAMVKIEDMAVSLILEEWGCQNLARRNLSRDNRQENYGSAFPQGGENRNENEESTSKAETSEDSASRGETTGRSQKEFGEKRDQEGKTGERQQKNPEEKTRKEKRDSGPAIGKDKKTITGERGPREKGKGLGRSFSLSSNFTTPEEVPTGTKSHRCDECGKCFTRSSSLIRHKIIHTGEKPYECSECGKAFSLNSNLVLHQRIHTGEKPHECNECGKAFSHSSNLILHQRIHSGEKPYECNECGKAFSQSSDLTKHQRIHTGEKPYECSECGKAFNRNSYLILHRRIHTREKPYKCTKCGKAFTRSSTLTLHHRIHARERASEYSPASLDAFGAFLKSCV
UniProt P17026: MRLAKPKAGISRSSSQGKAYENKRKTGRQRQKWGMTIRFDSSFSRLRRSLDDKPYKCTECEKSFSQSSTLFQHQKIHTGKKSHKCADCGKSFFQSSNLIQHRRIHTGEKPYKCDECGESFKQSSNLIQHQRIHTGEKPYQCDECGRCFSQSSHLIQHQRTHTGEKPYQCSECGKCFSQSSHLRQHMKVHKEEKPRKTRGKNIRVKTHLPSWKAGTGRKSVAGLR
UniProt P52737: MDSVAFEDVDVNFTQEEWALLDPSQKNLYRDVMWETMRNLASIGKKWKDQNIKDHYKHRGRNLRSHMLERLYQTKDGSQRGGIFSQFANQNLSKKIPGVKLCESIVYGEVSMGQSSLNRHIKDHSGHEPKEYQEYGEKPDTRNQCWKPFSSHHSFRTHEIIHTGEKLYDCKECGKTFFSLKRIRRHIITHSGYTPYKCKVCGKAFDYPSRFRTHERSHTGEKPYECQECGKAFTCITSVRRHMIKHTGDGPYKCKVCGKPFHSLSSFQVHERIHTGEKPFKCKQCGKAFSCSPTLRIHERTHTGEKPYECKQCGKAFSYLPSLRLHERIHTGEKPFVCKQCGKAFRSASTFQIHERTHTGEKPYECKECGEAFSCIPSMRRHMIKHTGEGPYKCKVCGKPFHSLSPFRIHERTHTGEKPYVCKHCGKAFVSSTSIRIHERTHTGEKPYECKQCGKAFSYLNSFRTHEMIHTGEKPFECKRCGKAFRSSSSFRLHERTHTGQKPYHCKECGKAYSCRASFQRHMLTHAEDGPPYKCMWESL
UniProt Q2M3W8: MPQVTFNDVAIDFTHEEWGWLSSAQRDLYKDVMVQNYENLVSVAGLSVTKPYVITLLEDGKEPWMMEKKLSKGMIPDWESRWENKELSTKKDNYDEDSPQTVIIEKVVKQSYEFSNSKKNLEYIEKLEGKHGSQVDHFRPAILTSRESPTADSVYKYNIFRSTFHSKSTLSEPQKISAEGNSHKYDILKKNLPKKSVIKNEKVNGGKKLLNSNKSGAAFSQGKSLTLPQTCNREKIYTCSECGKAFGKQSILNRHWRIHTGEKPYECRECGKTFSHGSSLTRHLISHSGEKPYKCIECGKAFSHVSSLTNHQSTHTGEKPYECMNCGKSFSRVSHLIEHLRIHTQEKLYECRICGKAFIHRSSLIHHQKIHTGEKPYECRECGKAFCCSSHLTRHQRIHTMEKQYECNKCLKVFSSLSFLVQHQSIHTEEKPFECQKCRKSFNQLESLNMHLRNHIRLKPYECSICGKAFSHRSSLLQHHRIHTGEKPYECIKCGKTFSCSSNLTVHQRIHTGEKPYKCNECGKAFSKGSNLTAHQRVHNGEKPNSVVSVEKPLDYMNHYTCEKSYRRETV
UniProt Q96LW1: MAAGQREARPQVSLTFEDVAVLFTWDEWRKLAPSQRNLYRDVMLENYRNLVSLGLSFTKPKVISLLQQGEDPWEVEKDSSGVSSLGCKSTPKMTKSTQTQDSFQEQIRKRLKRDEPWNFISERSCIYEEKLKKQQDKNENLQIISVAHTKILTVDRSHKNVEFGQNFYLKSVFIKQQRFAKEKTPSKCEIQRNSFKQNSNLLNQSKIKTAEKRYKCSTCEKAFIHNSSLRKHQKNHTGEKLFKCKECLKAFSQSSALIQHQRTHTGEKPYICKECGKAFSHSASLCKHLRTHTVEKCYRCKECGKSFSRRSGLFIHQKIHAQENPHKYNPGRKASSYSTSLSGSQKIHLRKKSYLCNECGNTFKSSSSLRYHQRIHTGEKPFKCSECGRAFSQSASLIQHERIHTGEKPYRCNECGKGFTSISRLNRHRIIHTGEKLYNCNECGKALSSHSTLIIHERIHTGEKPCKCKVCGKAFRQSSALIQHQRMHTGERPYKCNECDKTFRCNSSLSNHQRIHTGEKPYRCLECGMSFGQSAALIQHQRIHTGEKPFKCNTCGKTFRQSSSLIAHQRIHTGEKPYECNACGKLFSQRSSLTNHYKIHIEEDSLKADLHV
UniProt Q8NA42: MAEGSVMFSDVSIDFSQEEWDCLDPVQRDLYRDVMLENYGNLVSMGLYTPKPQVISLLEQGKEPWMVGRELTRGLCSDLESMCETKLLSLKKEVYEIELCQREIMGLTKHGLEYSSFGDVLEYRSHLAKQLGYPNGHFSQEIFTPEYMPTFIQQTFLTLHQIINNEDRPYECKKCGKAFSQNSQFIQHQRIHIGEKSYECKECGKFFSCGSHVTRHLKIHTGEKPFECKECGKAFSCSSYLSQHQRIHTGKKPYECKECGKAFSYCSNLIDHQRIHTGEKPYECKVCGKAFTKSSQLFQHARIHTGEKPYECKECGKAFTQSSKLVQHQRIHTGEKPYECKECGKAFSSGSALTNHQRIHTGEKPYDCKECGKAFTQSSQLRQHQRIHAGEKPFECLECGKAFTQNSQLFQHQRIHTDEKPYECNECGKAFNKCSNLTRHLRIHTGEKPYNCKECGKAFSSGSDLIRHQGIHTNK
UniProt A6NNF4: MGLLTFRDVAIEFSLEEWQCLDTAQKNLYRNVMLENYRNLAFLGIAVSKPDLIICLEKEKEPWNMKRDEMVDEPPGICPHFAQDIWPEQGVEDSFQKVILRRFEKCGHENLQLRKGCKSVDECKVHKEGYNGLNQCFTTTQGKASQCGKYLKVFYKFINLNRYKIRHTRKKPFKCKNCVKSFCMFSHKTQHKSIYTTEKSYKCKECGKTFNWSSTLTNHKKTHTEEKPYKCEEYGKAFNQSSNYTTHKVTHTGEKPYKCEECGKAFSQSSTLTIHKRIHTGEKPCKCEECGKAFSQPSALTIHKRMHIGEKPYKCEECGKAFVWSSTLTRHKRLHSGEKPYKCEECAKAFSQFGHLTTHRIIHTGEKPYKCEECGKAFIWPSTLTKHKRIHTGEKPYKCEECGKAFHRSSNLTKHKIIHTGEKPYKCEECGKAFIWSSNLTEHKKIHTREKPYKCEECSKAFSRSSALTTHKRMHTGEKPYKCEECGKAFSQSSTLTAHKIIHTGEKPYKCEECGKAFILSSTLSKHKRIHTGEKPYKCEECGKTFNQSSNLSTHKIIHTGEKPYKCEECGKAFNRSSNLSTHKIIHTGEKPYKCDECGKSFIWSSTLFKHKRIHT
UniProt Q68DI1: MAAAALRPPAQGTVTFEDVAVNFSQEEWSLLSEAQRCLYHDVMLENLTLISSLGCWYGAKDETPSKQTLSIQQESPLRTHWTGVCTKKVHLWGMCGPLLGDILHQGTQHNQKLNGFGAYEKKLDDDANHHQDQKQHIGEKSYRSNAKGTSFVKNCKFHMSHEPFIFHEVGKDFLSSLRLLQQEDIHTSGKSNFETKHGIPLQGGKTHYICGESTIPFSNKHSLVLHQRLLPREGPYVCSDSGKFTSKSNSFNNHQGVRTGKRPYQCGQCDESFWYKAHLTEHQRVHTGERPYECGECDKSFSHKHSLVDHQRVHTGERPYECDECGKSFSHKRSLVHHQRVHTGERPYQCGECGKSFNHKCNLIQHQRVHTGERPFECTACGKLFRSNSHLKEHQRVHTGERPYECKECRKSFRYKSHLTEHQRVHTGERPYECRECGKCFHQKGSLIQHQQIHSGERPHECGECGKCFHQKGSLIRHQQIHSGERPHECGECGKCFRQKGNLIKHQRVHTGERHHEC
UniProt Q5FWF6: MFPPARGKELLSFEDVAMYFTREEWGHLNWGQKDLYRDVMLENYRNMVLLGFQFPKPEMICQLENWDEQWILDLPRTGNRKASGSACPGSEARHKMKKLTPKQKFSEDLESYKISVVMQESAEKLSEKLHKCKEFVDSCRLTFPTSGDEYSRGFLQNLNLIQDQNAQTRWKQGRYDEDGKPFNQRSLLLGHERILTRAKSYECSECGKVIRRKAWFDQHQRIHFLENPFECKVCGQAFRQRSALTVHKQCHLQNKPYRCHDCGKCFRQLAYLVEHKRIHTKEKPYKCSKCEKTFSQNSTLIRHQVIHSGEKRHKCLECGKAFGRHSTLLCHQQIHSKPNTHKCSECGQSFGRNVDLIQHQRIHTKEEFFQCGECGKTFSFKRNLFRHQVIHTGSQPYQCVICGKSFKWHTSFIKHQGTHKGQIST
UniProt Q96IR2: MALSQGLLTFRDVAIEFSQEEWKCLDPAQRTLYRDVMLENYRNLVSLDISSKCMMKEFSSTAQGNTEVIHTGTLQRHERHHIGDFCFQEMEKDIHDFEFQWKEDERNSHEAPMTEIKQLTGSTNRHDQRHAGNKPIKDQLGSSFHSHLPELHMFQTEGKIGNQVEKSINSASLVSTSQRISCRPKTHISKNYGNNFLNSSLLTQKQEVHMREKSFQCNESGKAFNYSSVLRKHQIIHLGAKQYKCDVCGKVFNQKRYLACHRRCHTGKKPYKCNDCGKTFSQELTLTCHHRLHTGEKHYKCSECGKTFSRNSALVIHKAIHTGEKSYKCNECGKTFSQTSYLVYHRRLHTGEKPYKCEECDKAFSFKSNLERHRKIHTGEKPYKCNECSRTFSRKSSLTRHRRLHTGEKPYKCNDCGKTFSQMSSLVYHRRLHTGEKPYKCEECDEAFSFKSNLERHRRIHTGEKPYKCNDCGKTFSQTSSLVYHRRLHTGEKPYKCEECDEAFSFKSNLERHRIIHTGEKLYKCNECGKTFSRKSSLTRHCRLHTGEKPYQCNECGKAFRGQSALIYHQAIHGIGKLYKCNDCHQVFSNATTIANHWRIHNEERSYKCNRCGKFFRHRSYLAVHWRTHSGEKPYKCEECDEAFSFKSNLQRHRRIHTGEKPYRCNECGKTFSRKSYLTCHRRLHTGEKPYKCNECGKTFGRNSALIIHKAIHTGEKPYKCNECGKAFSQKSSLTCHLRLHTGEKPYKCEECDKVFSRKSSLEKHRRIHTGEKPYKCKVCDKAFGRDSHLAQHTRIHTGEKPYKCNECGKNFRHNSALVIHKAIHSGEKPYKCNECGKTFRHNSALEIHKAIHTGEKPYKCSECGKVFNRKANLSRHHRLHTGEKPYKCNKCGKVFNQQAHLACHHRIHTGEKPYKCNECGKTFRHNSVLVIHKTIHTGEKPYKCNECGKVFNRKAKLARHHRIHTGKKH
UniProt Q68DY1: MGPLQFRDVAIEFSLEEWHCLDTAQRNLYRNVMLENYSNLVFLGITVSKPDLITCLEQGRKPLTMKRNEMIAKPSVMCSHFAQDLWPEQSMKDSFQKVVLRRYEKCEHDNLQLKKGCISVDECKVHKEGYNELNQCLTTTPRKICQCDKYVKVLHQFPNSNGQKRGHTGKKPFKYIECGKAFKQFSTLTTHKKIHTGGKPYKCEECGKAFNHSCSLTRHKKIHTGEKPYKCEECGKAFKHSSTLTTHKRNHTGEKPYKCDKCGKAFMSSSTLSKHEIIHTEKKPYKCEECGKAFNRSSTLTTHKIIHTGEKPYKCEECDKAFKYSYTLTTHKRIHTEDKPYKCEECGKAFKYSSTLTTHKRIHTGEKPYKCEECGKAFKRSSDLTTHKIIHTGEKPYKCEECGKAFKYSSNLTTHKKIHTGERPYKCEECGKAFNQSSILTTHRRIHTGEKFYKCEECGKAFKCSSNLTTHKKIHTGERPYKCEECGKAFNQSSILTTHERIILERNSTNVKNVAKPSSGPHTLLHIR
UniProt O75373: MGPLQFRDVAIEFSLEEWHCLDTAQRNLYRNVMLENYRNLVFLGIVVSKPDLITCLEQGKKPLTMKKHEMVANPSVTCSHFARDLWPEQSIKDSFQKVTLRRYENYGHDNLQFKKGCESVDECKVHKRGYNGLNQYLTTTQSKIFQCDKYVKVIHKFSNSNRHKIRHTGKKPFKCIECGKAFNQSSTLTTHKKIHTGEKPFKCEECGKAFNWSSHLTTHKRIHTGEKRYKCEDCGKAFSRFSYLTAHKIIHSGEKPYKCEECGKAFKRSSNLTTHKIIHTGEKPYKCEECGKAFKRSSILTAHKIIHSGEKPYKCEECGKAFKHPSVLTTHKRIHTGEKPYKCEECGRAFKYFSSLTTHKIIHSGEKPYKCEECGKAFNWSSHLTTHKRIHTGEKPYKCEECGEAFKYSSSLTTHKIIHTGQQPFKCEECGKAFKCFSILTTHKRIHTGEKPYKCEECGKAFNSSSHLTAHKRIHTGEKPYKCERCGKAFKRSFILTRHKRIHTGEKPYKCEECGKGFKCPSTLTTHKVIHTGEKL

binding, binds:
CBX1 (from UniProt P83916 1-185)
CENPV (centromere protein V) (from UniProt Q7Z7K6 1-275)
EHMT1 (from UniProt Q9H9B1 1-1298)
EHMT2 (from UniProt Q96KQ7 1-1210)
GCN1 (from UniProt Q92616 1-2671)
RBM7 (from UniProt Q9Y580 1-266)
ZCCHC8 (from UniProt Q6NZY4 1-707)
ZFP1 (from UniProt Q6P2D0 1-407)
ZFP82 (from UniProt Q8N141 1-532)
ZKSC1 (from UniProt P17029 1-563)
ZKSC8 (from UniProt Q15776 1-578)
ZNF7 (from UniProt P17097 1-686)
ZNF17 (from UniProt P17021 1-662)
ZNF20 (from UniProt P17024 1-532)
ZNF22 (from UniProt P17026 1-224)
ZNF33A (from UniProt Q06730 1-810)
ZNF33B (from UniProt Q06732 1-778)
ZNF41 (from UniProt P51814 1-821)
ZNF44 (from UniProt P15621 1-663)
ZNF45 (from UniProt Q02386 1-682)
ZNF57 (from UniProt Q68EA5 1-555)
ZNF84 (from UniProt P51523 1-738)
ZNF101 (from UniProt Q8IZC7 1-436)
ZNF107 (from UniProt Q9UII5 1-783)
ZNF136 (from UniProt P52737 1-540)
ZNF181 (from UniProt Q2M3W8 1-571)
ZNF184 (from UniProt Q99676 1-751)
ZNF197 (from UniProt O14709 1-1029)
ZNF208 (from UniProt O43345 1-1280)
ZNF211 (from UniProt Q13398 1-564)
ZNF227 (from UniProt Q86WZ6 1-799)
ZNF229 (from UniProt Q9UJW7 1-825)
ZNF235 (from UniProt Q14590 1-738)
ZNF257 (from UniProt Q9Y2Q1 1-563)
ZNF264 (from UniProt O43296 1-627)
ZNF311 (from UniProt Q5JNZ3 1-666)
ZNF317 (from UniProt Q96PQ6 1-595)
ZNF320 (from UniProt A2RRD8 1-509)
ZNF324B (from UniProt Q6AW86 1-544)
ZNF354B (from UniProt Q96LW1 1-612)
ZNF383 (from UniProt Q8NA42 1-475)
ZNF419 (from UniProt Q96HQ0 1-510)
ZNF440 (from UniProt Q8IYI8 1-595)
ZNF468 (from UniProt Q5VIY5 1-522)
ZNF480 (from UniProt Q8WV37 1-535)
ZNF490 (from UniProt Q9ULM2 1-529)
ZNF529 (from UniProt Q6P280 1-563)
ZNF543 (from UniProt Q08ER8 1-600)
ZNF552 (from UniProt Q9H707 1-407)
ZNF554 (from UniProt Q86TJ5 1-538)
ZNF555 (from UniProt Q8NEP9 1-628)
ZNF558 (from UniProt Q96NG5 1-402)
ZNF563 (from UniProt Q8TA94 1-476)
ZNF564 (from UniProt Q8TBZ8 1-553)
ZNF583 (from UniProt Q96ND8 1-569)
ZNF587B (from UniProt E7ETH6 1-402)
ZNF589 (from UniProt Q86UQ0 1-364)
ZNF607 (from UniProt Q96SK3 1-696)
ZNF611 (from UniProt Q8N823 1-705)
ZNF615 (from UniProt Q8N8J6 1-731)
ZNF620 (from UniProt Q6ZNG0 1-422)
ZNF624 (from UniProt Q9P2J8 1-865)
ZNF678 (from UniProt Q5SXM1 1-525)
ZNF684 (from UniProt Q5T5D7 1-378)
ZNF699 (from UniProt Q32M78 1-642)
ZNF701 (from UniProt Q9NV72 1-531)
ZNF707 (from UniProt Q96C28 1-371)
ZNF718 (from UniProt Q3SXZ3 1-478)
ZNF721 (from UniProt Q8TF20 1-911)
ZNF726 (from UniProt A6NNF4 1-616)
ZNF749 (from UniProt O43361 1-778)
ZNF766 (from UniProt Q5HY98 1-468)
ZNF776 (from UniProt Q68DI1 1-518)
ZNF780A (from UniProt O75290 1-641)
ZNF785 (from UniProt A8K8V0 1-405)
ZNF789 (from UniProt Q5FWF6 1-425)
ZNF791 (from UniProt Q3KP31 1-576)
ZNF799 (from UniProt Q96GE5 1-643)
ZNF805 (from UniProt Q5CZA5 1-627)
ZNF813 (from UniProt Q6ZN06 1-617)
ZNF845 (from UniProt Q96IR2 1-970)

Molecular target: T1, TRIM28-K304Q (endogenous, knock-in K562 clone Q1) (human (endogenous in K562)) (UniProt Q13263)
T1 sequence: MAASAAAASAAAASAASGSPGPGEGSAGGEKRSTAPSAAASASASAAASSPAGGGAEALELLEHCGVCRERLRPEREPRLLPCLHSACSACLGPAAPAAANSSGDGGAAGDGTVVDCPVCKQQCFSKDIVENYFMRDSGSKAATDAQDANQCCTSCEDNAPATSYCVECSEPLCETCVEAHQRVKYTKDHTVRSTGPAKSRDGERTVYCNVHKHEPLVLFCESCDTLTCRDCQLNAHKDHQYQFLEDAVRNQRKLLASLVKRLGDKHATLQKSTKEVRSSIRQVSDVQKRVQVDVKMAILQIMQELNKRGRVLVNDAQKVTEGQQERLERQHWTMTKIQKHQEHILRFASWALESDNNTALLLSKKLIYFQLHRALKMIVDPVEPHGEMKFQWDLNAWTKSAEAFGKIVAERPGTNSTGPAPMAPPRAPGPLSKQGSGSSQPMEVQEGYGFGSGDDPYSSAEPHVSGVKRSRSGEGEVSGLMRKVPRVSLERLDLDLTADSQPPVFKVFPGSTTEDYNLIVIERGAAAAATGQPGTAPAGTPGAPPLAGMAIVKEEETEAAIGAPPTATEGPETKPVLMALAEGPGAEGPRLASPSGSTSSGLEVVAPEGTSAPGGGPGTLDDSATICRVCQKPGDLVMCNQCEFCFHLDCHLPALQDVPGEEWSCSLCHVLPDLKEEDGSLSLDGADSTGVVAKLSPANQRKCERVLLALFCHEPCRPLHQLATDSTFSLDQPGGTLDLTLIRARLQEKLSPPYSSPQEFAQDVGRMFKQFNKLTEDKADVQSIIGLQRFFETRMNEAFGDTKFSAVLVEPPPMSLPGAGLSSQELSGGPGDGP
Test: as above

binding, binds:
CBX1 (from UniProt P83916 1-185)
CENPV (centromere protein V) (from UniProt Q7Z7K6 1-275)
HNRNP H (human (endogenous in K562))
ZNF98 (from UniProt A6NK75 1-572)
ZNF140 (from UniProt P52738 1-457)
ZNF182 (from UniProt P17025 1-639)
ZNF626 (from UniProt Q68DY1 1-528)
ZNF681 (from UniProt Q96N22 1-645)
ZNF737 (from UniProt O75373 1-536)
ZNF878 (from UniProt C9JN71 1-531)
